In experiment [1] the test system is fli1:EGFP zebrafish embryos. The experiment can be described thus: fli1:EGFP zebrafish embryo exposure: survival and intersegmental vessel development. Format: in vivo. Particulars: concentration gradient, within 24 hours of drug exposure. As to the method:
We then examined the extent and nature of the anti-angiogenic effects of the compounds using transgenic fli1:EGFP zebrafish embryos. The vasculature of these fish is tagged with EGFP and the transparency of the zebrafish allows for visualization of the forming blood vessels and any effect of anti-cancer drugs on their development over time (Fig. 4). A known anti-angiogenic and teratogenic compound (CPS49) was screened alongside the drugs as a positive control at 10 μg/mL (30 μM), a previously established anti-angiogenic concentration.
fli1:EGFP zebrafish were obtained from the Zebrafish international Resource Centre[29] and maintained in an approved aquarium habitat at 28 °C. At 24 hours post fertilization (hpf) the embryos were checked for GFP expression using a fluorescent microscope and manually dechorionated with forceps, exposed to either a vehicle control, or an anti-angiogenic anti-cancer compound (at 24 hpf) for 24 hours and imaged at 48 hpf. At this point the embryos were anaesthetized in 0.1% tricaine and the length and number of intersegmental vessels (ISV) were quantified as previously described. A minimum of 10 embryos were screened per drug, per concentration, and experiments were performed in triplicate.

Experiment [2] concerns HUVEC cells. The experiment can be described thus: Endothelial cell proliferation assay (CCK-8). Format: cell-based. The conditions noted are these: Homo sapiens, 18 hours exposure, CCK-8 assay, n = 9. Here is the method: Anti-angiogenic drugs were screened in a concentration gradient in the HUVEC culture assay. […] Cell proliferation was assessed using a CCK-8 assay (Dojindo). Statistical analysis by two-way Anova. Error represents the standard error of the mean.
HUVEC cells were purchased from ATCC (Manassas, VA) and cultured as previously described. No further authentication was performed. Cells were seeded at 6.5 × 10^4 cells per well in 100 μL of medium per well. Drugs were diluted in prewarmed DMEM. Serial dilutions were performed from 1000–0.1 nM. The cells were left to grow for 18 hours with exposure to vehicle control (DMSO) or drugs. Experiments were done in triplicate each time. Cellular proliferation was assessed using a CCK-8 assay (Dojindo, Rockville, MD). All plates were read at 450 nm.

SMILES strings stand for the structures.

`CNC(=O)c1ccccc1Sc1ccc2c(/C=C/c3ccccn3)n[nH]c2c1` [Axitinib, axitinib]: the “relative potency in reducing vessel outgrowth” value in experiment [1] was “most potent”. In experiment [2], this compound registered a half-inhibitory concentration (IC50) of less than 0.5 nM.

The values above are taken from article PMC4957076, “Shared mechanism of teratogenicity of anti-angiogenic drugs identified in the chicken embryo model” (Scientific Reports, 2016).
